## Library screen at single concentrations

The values are deposited in ChEMBL (CHEMBL3988442, “University of Dundee, Small-Polar-MMV Screening Library” (2021)).

Values are the deposited “Percent Effect”, in %.
How 0% and 100% were set is not recorded. Most values in the screen are low, and negative values occur.
Compounds were drawn at random from those tested, without regard to their results.
Two or more numbers in one place are separate tests of the same structure; such repeats can differ widely.

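Whole-cell growth test on Mycobacterium tuberculosis, read after 3 days in glucose-containing 7H9 medium; the read-out is not stated. Concentration: 50 µM. The record gives no direction; compounds that gave an IC50 in retests scored well above the rest, so higher reads as more growth inhibition. Size under these conditions: about 69,000 compounds, about 760 of them at 50% or above in at least one test.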

| compound | percent effect |
|---|---|
| `CC(C)NC(=O)CCNC(=O)c1c(Br)c2ccccc2n1C` | -1.092 and 21.13 |
| `O=C(O)C(F)(F)F.[H][C@@]12CCN(Cc3ccccn3)C[C@@]1([H])O[C@H](C(=O)N1CCCO1)C2` | -12.85 and -10.16 |
| `COc1ccc2cccc(CC(=O)NCc3nccc(N)n3)c2c1` | 4.516 |
| `Cl.c1cc(CNCc2ccnc(N3CCOCC3)c2)c2c(c1)OCO2` | 11.51 |
| `Cc1ccc(CNC(=O)NCc2ccco2)s1` | 30.82 |
| `N#Cc1cccc(NC(=O)N2CCC3(CCC(=O)N(C4CC4)C3)CC2)c1` | -28.69 |
| `CC(C)OCc1ccccc1CNC(=O)C(C)(C)C` | -9.665 |
| `[H][C@@]12CCN(c3cnccn3)C[C@@]1(C(=O)O)CCCN2Cc1cccnc1` | -21.31 |
| `Brc1ccc(CNCc2nnc3n2CCC3)s1.Cl` | 11.21 |
| `CN(C)C(=O)COC1COC2(CCN(c3ncccn3)CC2)C1` (stereo not drawn) | 8.084 |
| `O=C(O)C(F)(F)F.O=C(O)C(F)(F)F.[H][C@@]12OCCN(Cc3ccsc3)[C@@]1([H])CC[C@H]2OCc1ccccn1` | 25.49 |
| `Cn1ccc(CN2CCCN(c3nccs3)CC2)cc1=O` | -7.485 |
| `CC(OCC1CC1)C(=O)Nc1nccn1Cc1ccccc1` (stereo not drawn) | -28.52 and -4.691 |
| `O=C(O)C(F)(F)F.[H][C@@]12CN(Cc3ccc(C)o3)C[C@H](C(=O)N3CCCCO3)[C@]1([H])CCO2` | 10.7 and -1.743 |
| `Cc1nc(Nc2cnccn2)cc(C2CCCN(C(C)C)C2)n1` (stereo not drawn) | 12.58 |
| `c1ccc(Cc2noc(CN(Cc3cccs3)CC3CCCO3)n2)cc1` (stereo not drawn) | 23.95 |
| `COc1ccc(C(=O)N2CCOCC2c2[nH]ncc2C)cc1F` (stereo not drawn) | -17.81 |
| `CN(CCc1ccccn1)S(=O)(=O)N1CCCC1c1ccco1` (stereo not drawn) | -4.921 |
| `O=C(O)c1cc(NS(=O)(=O)c2ccccc2F)ccc1N1CCSCC1` | 17.45 |
| `CC(C)c1noc(OCc2cccc(C#N)c2)n1` | -13.15 |
| `CC(=O)NCCNC(=O)CN1CCOC(Cn2cccn2)C1` (stereo not drawn) | -30.26 |
| `CC(C)C[C@@H](N)C(=O)N(C)Cc1csc(C(C)C)n1` | -31.05 |
| `Cc1cc(C)n(CCC(=O)OCC(=O)N2CCc3sccc3C2)n1` | 14.24 |
| `NS(=O)(=O)Cc1ccc(CNc2cncc(-n3cccn3)n2)cc1` | 10.58 |
| `CCc1cc(C(=O)N2CCCC(c3[nH]ncc3S(C)(=O)=O)C2)no1` (stereo not drawn) | -17.37 |
| `Cc1noc(CNc2ccccc2CC(=O)N(C)C)n1` | -9.047 |
| `Cc1nonc1CN(C)c1nc(-c2ccco2)nc2c1CCN(C)CC2` | 24.42 |
| `CCNC(=O)NC[C@@H]1C=C(C)[C@H](CC(=O)NCCN(C)C)C[C@H]1C(C)C` | 2.492 and -15.71 |
| `CC1c2ncc(CNC(=O)C3CC3)n2CCN1Cc1cccnc1.O=C(O)C(F)(F)F.O=C(O)C(F)(F)F` (stereo not drawn) | -32.08 |
| `[H][C@@]12CN(c3ncccc3Cl)C[C@]1(C(=O)O)CN(CC1CC1)C2=O` | -16.82 |
| `CC(C)CN1CC(c2nc(C3CC3)n[nH]2)CC1=O` (stereo not drawn) | -20.94 |
| `CC(C)(C)c1nc(CC(=O)Nc2cnccc2O)cs1` | 5.307 |
| `Cc1cc(CN2CCCCC2Cn2cncn2)no1` (stereo not drawn) | 26.09 |
| `CNC(=O)C1Cn2ccnc2C2(CCN(C(=O)c3ccccn3)CC2)O1` (stereo not drawn) | -8.275 and -3.182 |
| `CNC(=O)CN1CCCC12CCN(C(=O)c1ccoc1)CC2.O=C(O)C(F)(F)F` | 0.7378 |
| `O=C(c1cncs1)N1CCOC(c2cc(CCO)[nH]n2)C1` (stereo not drawn) | -25.12 |
| `CCO[C@H]1C[C@@H](O)C12CCN(C(=O)CCN1CCCC1=O)CC2` | -9.939 |
| `O=c1c(CN2CC3CCCN3C[C@@H]2CCO)coc2ccc(Cl)cc12` (stereo partly drawn) | -5.987 |
| `COc1ccccc1-c1ncc(CN2C[C@H](O)[C@@H](N3CCCC3)C2)s1` | 36.85 |
| `CS(=O)(=O)NCC1CCN(Cc2cc3ccccc3[nH]c2=O)C1` (stereo not drawn) | -20.71 and 1.263 |
| `Cc1n[nH]c(-c2ccc(NC(=O)C(C)N3CCN(C)CC3)cc2)n1` (stereo not drawn) | -12.49 and -5.714 |
| `O=C(O)C(F)(F)F.O=C(O)C(F)(F)F.[H][C@@]12CN(Cc3ccncc3)C[C@]1([H])[C@@H](OC)CCN2S(=O)(=O)CC` | -5.083 and -5.321 |
| `COc1ccc(CC(=O)N2CCN(C)c3ncccc3C2)cc1.O=C(O)C(F)(F)F` | -2.363 and -4.867 |
| `O=C(c1ccc[nH]1)N1CC2(CCN(c3nccs3)C2)C1` | 8.915 and -2.164 |
| `O=S(=O)(CCNC1CCc2ncnn2C1)c1ccc(Cl)cc1` (stereo not drawn) | 15.25 |
| `COCC(=O)N1CCCN(c2ncnc3c2CCNCC3)CC1` | 18.31 |
| `CC(=O)N(Cc1noc(C2CC2)n1)C1CCN(Cc2cc(C)on2)C1` (stereo not drawn) | 18.69 |
| `CNc1cc(C2CCCN2Cc2ccccc2C(=O)O)ccn1` (stereo not drawn) | -14.82 |
| `COCCN1CCc2cc(C(=O)O)c(NCC3CC3)nc2CC1.O=C(O)C(F)(F)F.O=C(O)C(F)(F)F` | -37.09 |
| `CCCOC1CCCN(C(=O)c2ccc(S(N)(=O)=O)cc2)C1` (stereo not drawn) | 3.304 and 2.689 |
| `Cc1cc(NC(=O)Cn2ncc(SCC(N)=O)c(Cl)c2=O)ccc1Br` | 19.48 |
| `Cc1nn(C)c2nc(C3CC3)c(Cl)c(C(=O)O)c12` | -11.43 |
| `Nc1nccnc1CC1CCCN(Cc2cccc3[nH]ccc23)C1` (stereo not drawn) | -34.24 |
| `COc1ccccc1CN1CC(OC)CN(C(=O)CC(C)C)CC1=O` (stereo not drawn) | 7.851 |
| `OC1=C2C(=Nc3n[nH]c(O)c3C2c2ccccc2Cl)CCC1` (stereo not drawn) | -3.551 and 3.719 |
| `OC(c1ccccn1)C1CCN(Cc2cc3n(n2)CCNC3)CC1` (stereo not drawn) | -29.93 |
| `O=C(Cc1ccc2c(c1)OCO2)N1CCCN(c2nccs2)CC1` | 9.273 |
| `CCCOc1ccc(Cl)cc1CNc1ncnc2oc(C)nc12` | 35.78 and -6.054 |
| `Cn1ccnc1CN1CCN(CCOc2cccc(C#N)c2)CC1` | 7.112 and -23.25 |
| `Cc1c(C(C)N)cnn1-c1ccccn1` (stereo not drawn) | -9.616 |
| `c1ccc(-c2noc(CN3CCOC(Cn4cccn4)C3)n2)nc1` (stereo not drawn) | -14.81 |
| `COCC(=O)NCc1cc2n(n1)CCCN(CCCC1CCCC1)C2` | -25.42 and 2.596 |
| `O=C(O)C(F)(F)F.O=C(O)C(F)(F)F.[H][C@]12CCN(CC3CCOCC3)[C@@]1([H])CCC(COCc1cccnc1)O2` (stereo partly drawn) | -30.79 |
| `CCC(NC(=O)NCc1nncn1CC)c1ccc(OC)cc1` (stereo not drawn) | -24.44 |
| `CCn1nc2nc(SCC(=O)O)cc(C(F)F)c2c1C` | 13.09 |
| `OCCCN1CCc2onc(C(c3ccccc3)c3ccccc3)c2C1` | -9.415 |
| `Cc1ccc(NC2CCN(C(=O)c3cccnc3N(C)C)CC2)nn1` | -27.36 |
| `CN(C)C(C(=O)N1CCCC1)c1ccccc1F` (stereo not drawn) | -13.27 and -6.582 |
| `COc1ccccc1C(=O)NS(=O)(=O)c1cccc(C#N)c1` | -13.53 |
| `Cc1nc(C)n(CC2CCCN2CCCc2ccccc2)n1` (stereo not drawn) | 20.86 and 1.328 |
| `COc1ccc(CCCN(C)C(=O)c2cc(Cl)c[nH]2)cc1OC` | 2.651 |
| `CC(C)C(NC(=O)c1ccc(Cl)cc1Cl)C(=O)Nc1ccn(C)n1` (stereo not drawn) | -9.726 |
| `O=C(NC1CCS(=O)(=O)c2ccccc21)c1sccc1C1CC1` (stereo not drawn) | -31.06 |
| `CCc1noc(CN2CCC(C(=O)Nc3cnn(CC)c3)CC2)n1` | 19.42 |
| `c1cc(-c2ccc(CN3CCCC4(CCNC4)C3)s2)[nH]n1` (stereo not drawn) | 1.43 and 8.597 |
| `Cc1ccsc1CNCc1c(C(C)C)nn(C)c1N1CCOCC1` | 10.64 |
| `CC(=O)NC1Cc2ccc(S(=O)(=O)NCCNc3ccccn3)cc2C1` (stereo not drawn) | 7.449 |
| `O=S(=O)(Cc1ccc(F)c(Cl)c1)NCCOc1cccnc1` | 6.405 |

Some entries from above, unchanged:

compound,percent effect
CN(CCc1ccccn1)S(=O)(=O)N1CCCC1c1ccco1 (stereo not drawn),-4.921
OC1=C2C(=Nc3n[nH]c(O)c3C2c2ccccc2Cl)CCC1 (stereo not drawn),-3.551 and 3.719
O=C(NC1CCS(=O)(=O)c2ccccc21)c1sccc1C1CC1 (stereo not drawn),-31.06
CC(=O)NCCNC(=O)CN1CCOC(Cn2cccn2)C1 (stereo not drawn),-30.26
c1ccc(-c2noc(CN3CCOC(Cn4cccn4)C3)n2)nc1 (stereo not drawn),-14.81
Cc1noc(CNc2ccccc2CC(=O)N(C)C)n1,-9.047
Cc1ccsc1CNCc1c(C(C)C)nn(C)c1N1CCOCC1,10.64